Library screening results

Mtb growth Cornell: 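Whole-cell assay for inhibitors of Mycobacterium tuberculosis growth, labelled Cornell in the record; the read-out is not stated. The concentration is filed as 10 mM, unlikely as a test dose, so the dose is not known. Higher means stronger inhibition (inferred from two other growth screens of the library). About 53,000 compounds were tested under these conditions; 1.7% (about 900) showed 50% or more at least once.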
Mtb heat-shock: 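Assay on Mycobacterium tuberculosis, filed only as a heat shock assay from Cornell; the read-out is not stated. The concentration is filed as 10 mM, unlikely as a test dose, so the dose is not known. Higher reads as stronger inhibition (inferred: compounds with an IC50 in retests scored well above the rest). Of about 69,000 compounds tested this way, about 930 (1.4%) reached 50% or more in at least one test.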

Results are given as percent effect.
How 0% and 100% were set is not recorded. Most values in the screen are low, and negative values occur.
The compounds are a random part of those screened.

structure: Cc1ccnn1CCC(=O)N1CCCC1c1cc2cccnc2[nH]1.Cl (stereo not shown)
Mtb growth Cornell: 18.28
Mtb heat-shock: -1.892

structure: CC(C)(O)CCc1cccc(C(=O)N[C@@H](CO)C(N)=O)c1
Mtb growth Cornell: -6.407
Mtb heat-shock: -11.39

structure: CCN(C)c1ncnc2c1CCN(C(=O)Cc1ccccn1)CC2.O=C(O)C(F)(F)F
Mtb growth Cornell: -8.792
Mtb heat-shock: -39.96

structure: CCc1nc(CN2CCCN(Cc3nnc(C4CC4)o3)CC2)no1
Mtb growth Cornell: -6.859
Mtb heat-shock: -0.825

structure: CCn1nc(C)c2nc(C)nc(NCCc3ccccc3)c21
Mtb growth Cornell: 18.42
Mtb heat-shock: 83.2

structure: Cc1cccc(N2CCN(CCNC(=O)c3ccnn3C)CC2)c1
Mtb growth Cornell: 27.39
Mtb heat-shock: -2.521

structure: CN1CCN(Cc2cccnc2)C(=O)C12CCN(Cc1ccco1)CC2.O=C(O)C(F)(F)F.O=C(O)C(F)(F)F.O=C(O)C(F)(F)F
Mtb growth Cornell: 15.2
Mtb heat-shock: 5.064

structure: CC1(c2ccc(Br)cc2)CC(=O)N(CCC(N)=O)C1=O (stereo not shown)
Mtb growth Cornell: -3.135
Mtb heat-shock: 9.929

structure: CC(C)CN1CCN(C(=O)c2[nH]nnc2Nc2ccccc2F)CC1
Mtb growth Cornell: 15.16
Mtb heat-shock: 2.773

structure: COc1ccccc1N1CCN(C(=O)c2ccnc(N(C)C)c2)CC1
Mtb heat-shock: -11.88

structure: Cn1c(CN2CCCCC2)nnc1C1CCCN(c2ccncc2F)C1 (stereo not shown)
Mtb growth Cornell: -3.064
Mtb heat-shock: -9.338

structure: Cc1nc(CN2CCCN(Cc3nc4ccccc4o3)CC2)no1
Mtb growth Cornell: 28.27
Mtb heat-shock: -9.763

structure: Cn1cncc1-c1nnc([C@H]2CCN(C3CCOCC3)C2)o1
Mtb growth Cornell: -13.74
Mtb heat-shock: -5.741

structure: O=c1cc(CNS(=O)(=O)C2CC2)nc2n1CCCNC2
Mtb growth Cornell: -52.08
Mtb heat-shock: 6.603

structure: Cc1cccc(N2CCC3(CCN(Cc4ccccn4)CC3)CC2)n1.O=C(O)C(F)(F)F.O=C(O)C(F)(F)F
Mtb growth Cornell: 17.3
Mtb heat-shock: -12.63

structure: O=C(NC[C@]1(O)CCN(Cc2ccccc2F)C[C@H]1O)c1c[nH]cn1
Mtb growth Cornell: -15.39
Mtb heat-shock: -4.222

structure: COc1ccc2c(c1)CCCN2C(=O)CNCC1CN(C)CCO1 (stereo not shown)
Mtb growth Cornell: -10.97
Mtb heat-shock: 9.939

structure: COc1ccc2c(CN3CCCN(Cc4ccncc4)CC3)n[nH]c2c1
Mtb growth Cornell: 36.24
Mtb heat-shock: 4.485

structure: Cl.O=S(=O)(c1ccc(Cl)cc1)N1CCc2nc(C3CCNCC3)ncc2C1
Mtb growth Cornell: 19.19
Mtb heat-shock: 15.18

structure: OC1(CN2CCOC(Cn3cncn3)C2)CCCCC1 (stereo not shown)
Mtb growth Cornell: -68.62
Mtb heat-shock: 0.2951

structure: Cn1c2c(c(=O)n1C)CN(S(=O)(=O)c1cccs1)CCC2
Mtb growth Cornell: 16.33
Mtb heat-shock: -14.19

structure: Cc1ccc(Oc2ncccc2CNC(=O)NC2CCCCC2)cn1
Mtb heat-shock: -0.1892

structure: O=C(c1ccoc1)N(Cc1ccccn1)C1CC1
Mtb growth Cornell: 15.65
Mtb heat-shock: 18.43

structure: COc1c(C2CCCN2CC(=O)Nc2cc(C)no2)c(C)nn1C (stereo not shown)
Mtb growth Cornell: 7.818
Mtb heat-shock: 8.972

structure: CC1c2ncc(CNC(=O)C3CC3)n2CCN1Cc1nccs1.O=C(O)C(F)(F)F (stereo not shown)
Mtb growth Cornell: 47.19
Mtb heat-shock: -12.73

structure: Cn1cc(NC(=O)CNC(=O)N2CCN(c3ccc(Cl)cc3)CC2)cn1
Mtb growth Cornell: 29.6
Mtb heat-shock: -11.91

structure: CCN(CC(=O)NCCc1nc(C)no1)Cc1ccc(Cl)cc1
Mtb growth Cornell: 14.23
Mtb heat-shock: 31.28

structure: CNCc1n[nH]c(=O)n1-c1cccc(Cl)c1Cl
Mtb growth Cornell: -98.88
Mtb heat-shock: 15.17

structure: CCOCC1CC2(CCN(C(=O)c3ncccn3)CC2)CO1 (stereo not shown)
Mtb growth Cornell: 6.875
Mtb heat-shock: -17.44

structure: COC1CN(C(=O)COC(C)=O)CCC(=O)N(C)c2ccccc21 (stereo not shown)
Mtb growth Cornell: -48.18
Mtb heat-shock: 45.97

structure: O=C(NCC1CC1)C1CSCN1S(=O)(=O)c1ccccc1F (stereo not shown)
Mtb growth Cornell: 8.94
Mtb heat-shock: 17.85

structure: CS(=O)(=O)N1CCC(NC(=O)COc2ccc3ccccc3c2)CC1
Mtb heat-shock: -28.44

structure: CN1CCCC(CNC(=O)N(C)Cc2ccc(Cl)c(F)c2)C1 (stereo not shown)
Mtb growth Cornell: -17.45
Mtb heat-shock: -15.95

structure: CN(Cc1ccccn1)C(CO)c1cccc(Br)c1 (stereo not shown)
Mtb growth Cornell: 4.337
Mtb heat-shock: 5.537

Repeated from the top, 3 entries:

{"structure": "Cc1ccnn1CCC(=O)N1CCCC1c1cc2cccnc2[nH]1.Cl", "stereo": "stereo not shown", "Mtb growth Cornell": 18.28, "Mtb heat-shock": -1.892}
{"structure": "CC(C)(O)CCc1cccc(C(=O)N[C@@H](CO)C(N)=O)c1", "Mtb growth Cornell": -6.407, "Mtb heat-shock": -11.39}
{"structure": "CCN(C)c1ncnc2c1CCN(C(=O)Cc1ccccn1)CC2.O=C(O)C(F)(F)F", "Mtb growth Cornell": -8.792, "Mtb heat-shock": -39.96}

Data taken from ChEMBL document CHEMBL3988442, “University of Dundee, Small-Polar-MMV Screening Library” (2021).